Test results taken from patent US20090029391A1, “REAGENTS AND METHODS FOR THE DETERMINATION OF PK/ADME-TOX CHARACTERISTICS OF NEW CHEMICAL ENTITIES AND OF DRUG CANDIDATES” (priority 2007, published 2009).
For at least one compound, name, drawing or mass did not settle the structure.

The chains behind the UniProt entries cited, without tags or fusion partners. Residues count along the entry.
UniProt P02768, 25-609, species assumed: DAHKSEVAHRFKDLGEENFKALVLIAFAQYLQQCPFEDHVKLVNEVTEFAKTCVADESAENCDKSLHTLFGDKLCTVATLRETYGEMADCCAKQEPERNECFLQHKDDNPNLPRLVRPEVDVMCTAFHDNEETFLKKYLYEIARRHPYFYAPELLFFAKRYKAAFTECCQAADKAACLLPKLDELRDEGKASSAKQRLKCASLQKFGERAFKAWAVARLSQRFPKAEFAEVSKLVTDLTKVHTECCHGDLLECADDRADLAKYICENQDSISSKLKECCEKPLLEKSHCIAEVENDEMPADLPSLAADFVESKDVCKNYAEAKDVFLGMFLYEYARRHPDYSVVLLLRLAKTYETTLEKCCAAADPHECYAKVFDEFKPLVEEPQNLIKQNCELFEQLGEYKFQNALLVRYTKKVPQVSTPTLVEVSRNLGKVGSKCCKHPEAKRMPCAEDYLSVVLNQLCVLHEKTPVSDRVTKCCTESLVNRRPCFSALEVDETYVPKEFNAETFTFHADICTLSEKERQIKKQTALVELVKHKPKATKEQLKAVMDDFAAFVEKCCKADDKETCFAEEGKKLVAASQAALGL

How the values were obtained:
albumin = albumin (Homo sapiens, UniProt P02768); details: literature value (Peeters 1996); cited from earlier work
[1] = Redox potential with PANI-COOH conductive polymer (O.D. 450 nm); format: physicochemical; details: 100 μM drug, PANI-COOH at pH 4, 10 minutes room temperature; inferred from 450 nm signal
Description: The redox potential of known drugs were assayed. The known drug at a given final concentration (100 μM) was introduced in a buffered solution of a conductive polymer (poly[aniline-2-carboxylic acid], PANI-COOH) at pH 4. The solution was mixed and incubated at room temperature (10 minutes). The optical density was read at 450 nm. A sample blank containing the drug and phtalate buffer was prepared, incubated and read in the same way. The OD 450 nm of the blank solution was subtracted from the OD 450 nm of the conductive polymer reaction mixture. […] A linear relationship was observed between the 450 nm signal and the reduction potential of the known molecules (FIG. 15.), which allowed the inference of the reduction potential of NCEs.
Screening a library of 60 well-known drugs allowed identification of bromocriptine as a relatively strong […] (E=−364 mV), prazosin and chlorpropamide as relatively strong […] (E=747 and 848 mV), which is in agreement with literature data (Wardman P. (1989) Reduction potentials of one-electron couples involving free radicals in aqueous solution. J. Phys. Chem. Ref. Data 18, 1637-1755). Although a reductant drug may exert beneficial therapeutic effects, an oxidant may be toxic. […]

| Structure (SMILES) | averaged affinity for albumin (albumin) | reduction potential E [1] |
| --- | --- | --- |
| C=CC1=C(C)/C(=C/c2[nH]c(Cc3[nH]c(/C=C4\NC(=O)C(C)=C4C=C)c(C)c3CCC(=O)O)c(CCC(=O)O)c2C)NC1=O [bilirubin] | 9.5.10^7 liter per mole | – |
| CC(C)C[C@H]1C(=O)N2CCC[C@H]2[C@]2(O)O[C@](NC(=O)[C@@H]3C=C4c5cccc6[nH]c(Br)c(c56)C[C@H]4N(C)C3)(C(C)C)C(=O)N12 [bromocriptine] | – | −364 mV |
